Laboratory results from PMC4859069 (2016).
No constants are given. Whether binding was seen depends on the method and setting. For some of these results: Binding seen in cells or lysates may run through a third protein. Some results given as binding are weak or reduced against the parent protein; the word gives no strength. Sequences can lack the tags named with a protein.

T1: Flag-14-3-3ζ (Drosophila) (UniProt P29310)
T1 sequence: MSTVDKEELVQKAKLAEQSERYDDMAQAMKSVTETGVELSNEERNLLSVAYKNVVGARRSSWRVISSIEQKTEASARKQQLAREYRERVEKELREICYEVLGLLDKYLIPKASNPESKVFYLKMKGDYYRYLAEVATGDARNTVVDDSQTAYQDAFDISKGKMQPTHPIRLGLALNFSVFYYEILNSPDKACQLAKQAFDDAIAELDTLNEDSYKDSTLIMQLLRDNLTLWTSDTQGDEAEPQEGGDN

T2: GST-14-3-3ζ (Drosophila melanogaster (Fruit fly), UniProt P29310)
T2 chain: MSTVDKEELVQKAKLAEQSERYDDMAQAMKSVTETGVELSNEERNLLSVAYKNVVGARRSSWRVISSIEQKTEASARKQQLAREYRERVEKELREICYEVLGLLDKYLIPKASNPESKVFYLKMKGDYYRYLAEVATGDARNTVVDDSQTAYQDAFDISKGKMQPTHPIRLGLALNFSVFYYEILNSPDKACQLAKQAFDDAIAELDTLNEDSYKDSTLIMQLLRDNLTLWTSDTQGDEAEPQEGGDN


Tests used:
[1] = target: T1, Flag-14-3-3ζ (Drosophila); assay: co-IP; S2 cells co-transfected with Flag-tagged 14-3-3 (or Flag-GFP) and V5-Tctp or V5-Rheb; CHAPS-based lysis buffer; anti-Flag on G-sepharose beads, overnight at 4 °C; blot with anti-V5
GST-14-3-3ζ = target: T2, GST-14-3-3ζ; assay: pull-down; 20 μg of each MBP- and GST-tagged protein in 500 μl pull-down buffer (20 mM Tris pH 7.5, 150 mM NaCl, 0.5 mM EDTA, 10% glycerol, 0.1% Triton X-100, 1 mM DTT), overnight at 4 °C with Glutathione Excellose resin; blot with anti-MBP; both purified

binding [1]	binding (GST-14-3-3ζ)	Binder
binds		V5-Rheb (protein, UniProt Q9VND8 1-182) MPTKERHIAMMGYRSVGKSSLCIQFVEGQFVDSYDPTIENTFTKIERVKSQDYIVKLIDTAGQDEYSIFPVQYSMDYHGYVLVYSITSQKSFEVVKIIYEKLLDVMGKKYVPVVLVGNKIDLHQERTVSTEEGKKLAESWRAAFLETSAKQNESVGDIFHQLLILIENENGNPQEKSGCLVS
	binds	MBP–Rheb (protein, UniProt Q9VND8 1-182) MPTKERHIAMMGYRSVGKSSLCIQFVEGQFVDSYDPTIENTFTKIERVKSQDYIVKLIDTAGQDEYSIFPVQYSMDYHGYVLVYSITSQKSFEVVKIIYEKLLDVMGKKYVPVVLVGNKIDLHQERTVSTEEGKKLAESWRAAFLETSAKQNESVGDIFHQLLILIENENGNPQEKSGCLVS
binds		V5-Tctp (protein, UniProt Q9VGS2 1-172) MKIYKDIITGDEMFADTYKMKLVDDVIYEVYGKLITRQGDDIKLEGANASAEEADEGTDITSESGVDVVLNHRLTECFAFGDKKSYTLYLKDYMKKVLAKLEEKSPDQVDIFKTNMNKAMKDILGRFKELQFFTGESMDCDGMVALVEYREINGDSVPVLMFFKHGLEEEKC
	binds	MBP-Tctp (protein) MKIYKDIITGDEMFADTYKMKLVDDVIYEVYGKLITRQGDDIKLEGANASAEEADEGTDITSESGVDVVLNHRLTECFAFGDKKSYTLYLKDYMKKVLAKLEEKSPDQVDIFKTNMNKAMKDILGRFKELQFFTGESMDCDGMVALVEYREINGDSVPVLMFFKHGLEEEKC
